No constants are given. Whether binding was seen depends on the method and setting. For part of these data: Binding can be weak; no strength is given.
What was measured:
[1] = biological target: flagellin type A of multi-drug resistant P. aeruginosa strain PA49 (Pseudomonas aeruginosa); test: immunoblot of P. aeruginosa lysates probed with LST-003 at 10 µg/ml, anti-human Fc peroxidase detection
[2] = biological target: flagellin type A of multi-drug resistant P. aeruginosa strain PA409 (Pseudomonas aeruginosa); test: as above
[3] = biological target: flagellin type A of multi-drug resistant P. aeruginosa strain PA141 (Pseudomonas aeruginosa); test: as above
[4] = biological target: flagellin type A of multi-drug resistant P. aeruginosa strain PA1 (Pseudomonas aeruginosa); test: as above
[5] = biological target: flagellin type A of multi-drug resistant P. aeruginosa strain PA49 (Pseudomonas aeruginosa); test: immunoblot of bacterial lysates
[6] = biological target: flagellin type A of multi-drug resistant P. aeruginosa strain PA409 (Pseudomonas aeruginosa); test: immunoblot of bacterial lysates
[7] = biological target: flagellin type A of multi-drug resistant P. aeruginosa strain PA141 (Pseudomonas aeruginosa); test: immunoblot of bacterial lysates
[8] = biological target: flagellin type A of multi-drug resistant P. aeruginosa strain PA1 (Pseudomonas aeruginosa); test: immunoblot of bacterial lysates
[9] = biological target: flagellin type B of multi-drug resistant clinical P. aeruginosa isolate Ka02 (Pseudomonas aeruginosa); test: ELISA on formaldehyde-fixed whole bacteria, mAb at 1 nM
[10] = biological target: flagellin type A of P. aeruginosa strain ATCC 27853 (Pseudomonas aeruginosa); test: as above
[11] = biological target: flagellin type B of multi-drug resistant clinical P. aeruginosa isolate Ka02 (Pseudomonas aeruginosa); test: ELISA on formaldehyde-fixed whole bacteria
[12] = biological target: flagellin type B of multi-drug resistant P. aeruginosa strain PA21 (Pseudomonas aeruginosa); test: immunoblot of P. aeruginosa lysates probed with LST-003, anti-human Fc peroxidase detection
[13] = biological target: flagellin type A of multi-drug resistant P. aeruginosa strain PA49 (Pseudomonas aeruginosa); test: western blot of bacterial lysates, mAb at 10 µg/ml
[14] = biological target: flagellin type A of multi-drug resistant P. aeruginosa strain PA409 (Pseudomonas aeruginosa); test: western blot of bacterial lysates, mAb at 10 µg/ml
[15] = biological target: flagellin type A of multi-drug resistant P. aeruginosa strain PA141 (Pseudomonas aeruginosa); test: western blot of bacterial lysates, mAb at 10 µg/ml
[16] = biological target: flagellin type A of multi-drug resistant P. aeruginosa strain PA1 (Pseudomonas aeruginosa); test: western blot of bacterial lysates, mAb at 10 µg/ml
[17] = biological target: flagellin type A of P. aeruginosa strain ATCC 27853 (Pseudomonas aeruginosa); test: ELISA on wells holding an equal mixture of formaldehyde-fixed PA27853 (type A) and Ka02 (type B) bacteria, mAb at 1 nM; the target within the mixture follows the filing's text, not the sheet
[18] = biological target: flagellin type B of multi-drug resistant P. aeruginosa strain PA21 (Pseudomonas aeruginosa); test: western blot of P. aeruginosa lysates

B1: chimeric mAb LST-003 (antibody, V domains shown)
VH: DVQLQESGPGLVKPSQSLSLPCSVTGYSITSGYYWNWIRQFPGNKLEWMGYIRYDGNNNYNPSLKNRISITHDTSKNQFFLKLNYVTTEDTATYYCARGLQFYFDSWGQGTTLTVSS
VL: DIVMSQSPSSLAVSGGEKVTMSCKSSQSLLNGSYQKHTLAWYQQKPGQSPKLLIYWASTRESGVPDRFTGSGSGTDFTLTISSVKAEDLAVYYCQQYYSYPWTFGGGTKLEIKR
[1]
  binding: binds
[2]
  binding: binds
[3]
  binding: binds
[4]
  binding: binds
[5]
  binding: binds
[6]
  binding: binds
[7]
  binding: binds
[8]
  binding: binds
[9]
  binding: no binding (tested: 1 nM)
[10]
  binding: binds
[11]
  binding: no binding (tested: 1 nM)
[12]
  binding: no binding (tested: 10 µg/ml)
[13]
  binding: binds
[14]
  binding: binds
[15]
  binding: binds
[16]
  binding: binds
[17]
  binding: binds
[18]
  binding: no binding (tested: 10 µg/ml)

Source: US20130096282A1
